{
  "source": "PubChem BioAssay AID587",
  "about": "(National Center for Advancing Translational Sciences (NCATS), 2007)",
  "note": "Among all 59,000 compounds or so, about 35 (0.06%) were called active. Inconclusive means that the source gave no clear call. Such entries were picked first, then a sample of the others. No stated cut-off is given here; in the data, active means max dye-equivalent concentration above about 10 nM; inconclusive means between about 1.1 nM and that limit; inactive means weaker than that.",
  "data": [
    {"assay": "qHTS Assay for Spectroscopic Profiling in Texas Red Spectral Region", "details": "Compound fluorescence, Texas Red channel, 547/618 nm; active compounds read high", "method_in_brief": "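qHTS profiling of intrinsic compound fluorescence; 100 mM Tris pH 8.0; 15 min RT; ex 547 / em 618 nm; response expressed as Texas Red dye-equivalent concentration from six-point plate standard.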", "values": [
      {"smiles": "O=C(O)CCC(NS(=O)(=O)c1ccc(N2CCCC2=O)cc1)C(=O)O", "note": "(stereo unspecified)", "max dye-equivalent concentration": "inconclusive: 1.7 nM"},
      {"smiles": "O=C1C2C3C=CC(C3=C3CCCCC3)C2C(=O)N1c1ccccc1", "note": "(stereo unspecified)", "max dye-equivalent concentration": "inconclusive: 1.9 nM"},
      {"smiles": "CCC(=O)Nc1cccc(NC(=O)c2cccnc2)c1", "max dye-equivalent concentration": "inconclusive: 1.3 nM"},
      {"smiles": "CC1CC(C)CN(c2ncc3c(n2)CC(c2ccc(Cl)cc2)CC3=O)C1", "note": "(stereo unspecified)", "max dye-equivalent concentration": "inconclusive: 1.3 nM"},
      {"smiles": "O[C@@](CCN1CCCCC1)(c1ccccc1)C1CCCCC1", "max dye-equivalent concentration": "inconclusive: 1.1 nM"},
      {"smiles": "COc1ccccc1C(=O)NCCCn1cc(Br)c(C)n1", "max dye-equivalent concentration": "inconclusive: 1.8 nM"},
      {"smiles": "COc1ncc2nc(-c3ccc(Cl)cc3)c(=O)n(Cc3cccs3)c2n1", "max dye-equivalent concentration": "inactive"},
      {"smiles": "CCc1ccccc1N(CC(=O)N1CCN(c2ccccc2F)CC1)S(C)(=O)=O", "max dye-equivalent concentration": "inactive"},
      {"smiles": "CC(=O)c1nnn(-c2nc(N)nc(N(c3ccccc3)c3ccccc3)n2)c1C", "max dye-equivalent concentration": "inconclusive: 1.2 nM"},
      {"smiles": "COc1ccc(N(C)S(=O)(=O)c2ccc3c(c2)CCC(=O)N3)cc1", "max dye-equivalent concentration": "inactive"},
      {"smiles": "COC(=O)C1=C(N)Oc2cc(C)n(CCCn3ccnc3)c(=O)c2C1c1ccc(Cl)cc1", "note": "(stereo unspecified)", "max dye-equivalent concentration": "inconclusive: 1.1 nM"},
      {"smiles": "N#Cc1cccc(-c2nccc(-n3ccnc3)n2)c1", "max dye-equivalent concentration": "inactive"},
      {"smiles": "COCCNc1nc(-c2ccccc2OC)nc2ccccc12", "max dye-equivalent concentration": "inactive"},
      {"smiles": "COc1ccc(OC)c(C(c2nnnn2CCc2ccccc2)N2CCC(C(N)=O)CC2)c1", "note": "(stereo unspecified)", "max dye-equivalent concentration": "inconclusive: 2.5 nM"},
      {"smiles": "Cc1cc(N(CC(=O)O)S(C)(=O)=O)ccc1Br", "max dye-equivalent concentration": "inconclusive: 1.1 nM"},
      {"smiles": "C=CCOc1cccc(C2C(C(=O)c3ccc(C)o3)=C(O)C(=O)N2CCN(C)C)c1", "note": "(stereo unspecified)", "max dye-equivalent concentration": "inconclusive: 2 nM"},
      {"smiles": "Cc1ccc(NC(=O)CSc2nnc(-c3ccncc3)n2C)cc1C", "max dye-equivalent concentration": "inconclusive: 3.1 nM"},
      {"smiles": "CCOCCCNC(=O)CN1C(=O)C(CC)Oc2ccccc21", "note": "(stereo unspecified)", "max dye-equivalent concentration": "inconclusive: 1.1 nM"},
      {"smiles": "CC[N+](C)(CC)CCC[n+]1c(-c2ccccc2)c2cc(N)ccc2c2ccc(N)cc21", "max dye-equivalent concentration": "inconclusive: 5.6 nM"},
      {"smiles": "O=C1C(Cl)=C(Sc2nnc3c4ccccc4c4ccccc4c3n2)C(=O)c2ccccc21", "max dye-equivalent concentration": "inconclusive: 1.1 nM"},
      {"smiles": "COc1ccc(C[C@@H]2C(=O)N[C@H](C)C(=O)N(C)[C@@H]3Cc4ccc(cc4)Oc4cc(ccc4O)C[C@H](C(=O)N[C@@H](C)C(=O)N[C@H](C)C(=O)N2C)N(C)C3=O)cc1", "max dye-equivalent concentration": "inactive"},
      {"smiles": "CC(C)(C)c1ccc(-c2nnc(SCCC#N)n2C2CCCC2)cc1", "max dye-equivalent concentration": "inconclusive: 2.3 nM"},
      {"smiles": "Cc1ccc(C2C3=C(CC(C)(C)CC3=O)NC3=C2C(=O)CC(C)(C)C3)o1", "max dye-equivalent concentration": "inconclusive: 1.1 nM"},
      {"smiles": "O=c1cc(NCc2ccc3c(c2)OCO3)[nH]c(=O)n1-c1ccc(Cl)cc1", "max dye-equivalent concentration": "inconclusive: 1.6 nM"},
      {"smiles": "CCOc1ccc(NC(=O)C2CC(=O)N(C(C)C)C2)cc1", "note": "(stereo unspecified)", "max dye-equivalent concentration": "inconclusive: 1.1 nM"},
      {"smiles": "COc1ccccc1N1CCN(C(=O)c2ccc(N3CCCC3=O)cc2)CC1", "max dye-equivalent concentration": "inconclusive: 1.4 nM"},
      {"smiles": "Nc1ncnc2c1ncn2[C@@H]1CCCO1", "max dye-equivalent concentration": "inactive"},
      {"smiles": "CCCc1cc(=O)oc2c(CN3CCCC3)c(O)ccc12", "max dye-equivalent concentration": "inconclusive: 1.2 nM"},
      {"smiles": "CC(C(=O)Nc1nccs1)N1C(=O)C2CC=CCC2C1=O", "note": "(stereo unspecified)", "max dye-equivalent concentration": "inconclusive: 1.4 nM"},
      {"smiles": "CN1CC=C2C(C#N)=C(N)C(C#N)(C#N)C(CCc3ccccc3)C2C1", "note": "(stereo unspecified)", "max dye-equivalent concentration": "inconclusive: 2.4 nM"},
      {"smiles": "Cc1occc1C(=O)n1nnc2ccccc21", "max dye-equivalent concentration": "inconclusive: 1.4 nM"},
      {"smiles": "COc1ccccc1CN1CCCC2(CCN(C(C)=O)CC2)C1", "max dye-equivalent concentration": "inactive"},
      {"smiles": "COCCCn1c(=N)c(C(=O)NCC2CCCO2)cc2c(=O)n3ccccc3nc21", "note": "(stereo unspecified)", "max dye-equivalent concentration": "inconclusive: 1.6 nM"},
      {"smiles": "CCN(CC)CC(=O)c1c[nH]c2ccc(C)cc12", "max dye-equivalent concentration": "inconclusive: 1.1 nM"},
      {"smiles": "O=C(NC1CCCC1)C(c1ccc(N2CCOCC2)cc1)N(Cc1ccco1)C(=O)c1ccco1", "note": "(stereo unspecified)", "max dye-equivalent concentration": "inconclusive: 1.6 nM"},
      {"smiles": "N#CCCn1c(=O)c(-c2cc(F)cc(F)c2)nc2cnc(Oc3ccccc3)nc21", "max dye-equivalent concentration": "inactive"},
      {"smiles": "Cc1ccc2cc(CN(Cc3ccco3)S(=O)(=O)c3c(C)ccc4nsnc34)c(=O)[nH]c2c1", "max dye-equivalent concentration": "inconclusive: 1.3 nM"},
      {"smiles": "COc1cccc(Cn2c(=O)c(-c3cccc(Cl)c3)nc3cncnc32)c1", "max dye-equivalent concentration": "inactive"},
      {"smiles": "CCCNS(=O)(=O)c1ccc(C(=O)NCC2CCCO2)cc1", "note": "(stereo unspecified)", "max dye-equivalent concentration": "inconclusive: 1.7 nM"},
      {"smiles": "Cc1nnc(NCc2ccco2)c2ccccc12", "max dye-equivalent concentration": "inconclusive: 1.3 nM"},
      {"smiles": "Nc1ccc(C(=O)O)c(O)c1", "max dye-equivalent concentration": "inactive"},
      {"smiles": "CCOC(=O)c1cc2c(c(CSc3nc4ccccc4c(=O)n3Cc3ccco3)c1)OCOC2", "max dye-equivalent concentration": "inconclusive: 1.8 nM"},
      {"smiles": "C=CCOc1ccc(CN(C)CC(=O)N(CC(C)C)c2c(N)n(CC(C)C)c(=O)[nH]c2=O)cc1", "max dye-equivalent concentration": "inconclusive: 2.1 nM"},
      {"smiles": "O=C(NC1CC2CCCC(C1)N2C(=O)NCc1ccccc1)C1CC1", "note": "(stereo unspecified)", "max dye-equivalent concentration": "inconclusive: 1.4 nM"},
      {"smiles": "CC(=O)c1c(C)[nH]c(C(=O)NC2CCCCC2)c1C", "max dye-equivalent concentration": "inconclusive: 1.1 nM"},
      {"smiles": "O=C(NCC1CCCCC1)C1CCN(C(=O)NC2CCCCC2)CC1", "max dye-equivalent concentration": "inconclusive: 2.4 nM"},
      {"smiles": "Clc1ccccc1-c1nc(NCc2cccs2)c2ccccc2n1", "max dye-equivalent concentration": "inactive"},
      {"smiles": "O=c1[nH]c2ccccc2nc1NCCN1CCOCC1", "max dye-equivalent concentration": "inactive"},
      {"smiles": "CN1C(=S)SC(C)(C)C1(C)NO", "note": "(stereo unspecified)", "max dye-equivalent concentration": "inconclusive: 2.7 nM"},
      {"smiles": "Cc1noc(NC(=O)Nc2ccccc2F)c1C#N", "max dye-equivalent concentration": "inconclusive: 1.1 nM"},
      {"smiles": "O=C(OCc1cc(=O)n2cc(Br)ccc2n1)C1COc2ccccc2O1", "note": "(stereo unspecified)", "max dye-equivalent concentration": "inconclusive: 2.8 nM"},
      {"smiles": "COc1cc(NC(=O)Cc2ccccc2OC)cc(OC)c1", "max dye-equivalent concentration": "inconclusive: 1.7 nM"},
      {"smiles": "CCCn1c(=O)c(Cc2ccccc2)c(O)c2ccccc21", "max dye-equivalent concentration": "inconclusive: 1.2 nM"},
      {"smiles": "Cc1cc(NC(=O)CSc2nnc(C3CC3)n2C)no1", "max dye-equivalent concentration": "inconclusive: 1.2 nM"},
      {"smiles": "CC(C)c1cc(NC(=O)CSc2nnc(-c3ccccc3F)n2C)on1", "max dye-equivalent concentration": "inconclusive: 1.2 nM"},
      {"smiles": "Cc1cnc(CNc2nc(-c3cccc(NS(C)(=O)=O)c3)nc3ccccc23)cn1", "max dye-equivalent concentration": "inactive"}
    ]}
  ]
}
